This note sets out measurements from PubChem BioAssay AID2685 (National Center for Advancing Translational Sciences (NCATS), 2010).

The other results are listed elsewhere or left out. The main result of the screen is listed elsewhere. These columns were measured beside it and carry no call. Compounds called inactive in the main read-out are mostly missing here. The note in brackets gives the kind of curve behind each potency; many fits are weak.

The assay can be described thus: qHTS Assay for Lipid Storage Modulators in Drosophila S3 Cells.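 As to cell number change: cells counted by Cell Tracker Red CMTPX staining in the red channel.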 The settings on record: BODIPY lipid droplet fluorescence, 18-24 h; for cell number change: measured here: cell count max response, cells fed with added oleic acid. In short, it runs like this:
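Laser-scanning cytometry quantifies lipid droplet accumulation (500–530 nm total intensity; droplet/cell object ratio) in oleic acid-fed (400 uM added) Drosophila S3 cells treated with a concentration series. 20 uM Triacsin C defined 100% inhibition.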
In general terms: In qHTS, concentration-response curves come from the screen itself.

Setting [1] is: measured here: lipid fluorescence (Fed channel) AC50, cells fed with added oleic acid.
The mark [2] stands for this setting: measured here: cell number channel AC50, cells fed with added oleic acid.

For the molecule `COc1ccc(NC(=O)C(=O)Nc2cccc3cccnc23)c(OC)c1`, the cell number change was -11.7%.
As a reminder, the AC50 is the concentration giving half of the maximal activity seen. The low end stands for greater potency, the high end for weaker potency. With `CCOc1ccc2nc(NC(=O)c3cccnc3)sc2c1`, the cell number change came to 18.3%. Also, the concentration at half-maximal activity (AC50) under setting [1] is 5.8 µM [rising, single point].
With `Cc1cc(C)cc(N(CCC#N)C(=O)COC(=O)CN2C(=O)NC(C)(C)C2=O)c1`, the cell number change came to 5.5%.
For the molecule `CC(=O)Cc1cc(O)c2ccccc2c1OC(=O)c1ccccc1`, the cell number change is -9.87%. Also, under setting [1], the concentration at half-maximal activity (AC50) is 25.9 µM [falling, single point].
As for `COc1ccc(NC(=O)N2CCCC(C(=O)NCc3ccccc3F)C2)cc1` (stereo unspecified), the cell number change was 37%. Besides, under setting [2], the half-maximal activity concentration (AC50) is 29.1 µM [rising, single point].
`Cc1ccnc(NC(=O)c2ccc([N+](=O)[O-])s2)c1`: under setting [1], the concentration at half-maximal activity (AC50) was 10 µM [falling, partial curve].
For `COc1ccc(S(=O)(=O)N2CCCC(C(=O)NC3CCCC3)C2)cc1OC` (stereo unspecified), under setting [1], the AC50 is 32.6 µM [falling, partial curve, poor fit].
Regarding `Cc1cc(C)nc(NC(=O)CSc2nc3ccccc3s2)n1`, the concentration at half-maximal activity (AC50) was 1.84 µM [rising, partial curve, poor fit] under setting [2] and 3.26 µM [rising, partial curve] under setting [1].
`CCN(CC(=O)Nc1c(F)cccc1F)C(=O)/C=C/c1ccc2ccccc2n1`: the cell number change is -9.47%. Besides, the half-maximal activity concentration (AC50) under setting [1] is 0.291 µM [falling, partial curve, poor fit].
Turning to `O=C(COC(=O)/C=C/c1cccs1)Nc1nc(-c2ccccc2)cs1`, the cell number change is 1.59%.
`CCN1C(=O)C(=O)N(CC(=O)c2[nH]c(C)c(C(C)=O)c2C)C1=O`: the cell number change was determined as 11.9%. For the same molecule, the AC50 under setting [1] is 0.0731 µM [falling, full curve, poor fit].
Consider `CCOC(=O)C1C(=O)OC(C)(C)C1C(C)C(=O)c1ccc(C)cc1` (stereo unspecified), for which the cell number change was -12.2%. For the same molecule, the concentration at half-maximal activity (AC50) under setting [2] is 1.03 µM [falling, full curve]. The AC50 under setting [1] was 0.0517 µM [rising, full curve, poor fit].
As for `COc1cc(C2C(C#N)=C(N)N(c3cccnc3)C3=C2C(=O)CC(C)(C)C3)ccc1O` (stereo unspecified), the cell number change is 49.5%. In addition, the concentration at half-maximal activity (AC50) under setting [2] is 1.3 µM [rising, full curve]. For the same molecule, the AC50 under setting [1] is 0.82 µM [rising, full curve].
`COc1ccc(C(=O)CCN2CCCC(C)C2)cc1` (stereo unspecified): under setting [1], the AC50 is 29.1 µM [falling, single point].
For `CC(C)Sc1cc(N2CCCC2)nc(-c2ccccc2Cl)n1`, the cell number change came out at 79.5%. The concentration at half-maximal activity (AC50) under setting [2] was 29.1 µM [rising, partial curve, poor fit]. For the same molecule, the AC50 under setting [1] was 0.461 µM [rising, partial curve, poor fit].
For `CC(C)(C)OC(=O)N1CCC(c2c(C(=O)NCC3CCN(C4CCCC4)C3)cnn2-c2ccccc2Cl)CC1` (stereo unspecified), the cell number change was -20.3%.
In the case of `COc1cccc(COC(=O)c2sc3nc4n(c(=O)c3c2C)CCC4)c1OC`, the cell number change came out at 152%. Under setting [2], the half-maximal activity concentration (AC50) is 3.66 µM [rising, partial curve].
With `N#Cc1c(-c2ccncc2)cc(-c2ccc(F)cc2)nc1N`, the cell number change amounted to 15%.
For `CCC1(C)Cc2c(sc3nc(SC)[nH]c(=O)c23)CO1` (stereo unspecified), the cell number change came to 34.8%.
For `COc1ccc2c(CC(=O)Nc3ccccc3N3CCOCC3)coc2c1`, the cell number change was determined as 14.3%. Further, the concentration at half-maximal activity (AC50) under setting [2] was 5.17 µM [falling, single point].
As for `Cn1c(=O)c2c(ncn2CCCc2ccccc2)n(C)c1=O`, the cell number change was -16%.
Regarding `COc1ccc(N(CC(=O)Nc2ccc(C(C)C)cc2)S(=O)(=O)c2c(C)noc2C)cc1`, the cell number change worked out at 2.36%. Besides, the AC50 under setting [1] is 25.9 µM [rising, single point].
Regarding `CSCCC(NC(=O)c1cccc(S(=O)(=O)N2CCOCC2)c1)C(=O)Nc1cccc(C)c1` (stereo unspecified), the cell number change was -0.236%. Also, the half-maximal activity concentration (AC50) under setting [1] was 9.2 µM [rising, partial curve].
On to `COc1cccc(OCCCCCCN2CCOCC2)c1`, for which the cell number change is -2.43%. The concentration at half-maximal activity (AC50) under setting [1] was 6.51 µM [falling, single point].
`Cc1ccccc1NS(=O)(=O)c1ccc2[nH]cc(C(=O)NC3CCCCC3)c(=O)c2c1`: the cell number change was -32%. The AC50 under setting [2] was 29.1 µM [falling, single point]. For the same molecule, the concentration at half-maximal activity (AC50) under setting [1] is 25.9 µM [falling, single point].
Take `Cn1c(SCC(=O)N(C2CCCCC2)C2CCCCC2)nnc1-c1cccs1`: the cell number change is -37.1%. In addition, the AC50 under setting [2] is 32.6 µM [falling, single point]. Further, the AC50 under setting [1] was 32.6 µM [falling, single point].
As to `COc1ccc(CCNC(=O)CSc2cccc3cccnc23)cc1OC`, the cell number change is -11.7%. In addition, under setting [1], the concentration at half-maximal activity (AC50) is 3.66 µM [falling, partial curve].
Turning to `CN(CCNC(=O)C1CCN(c2ncnc3c2nc2n3CCCCC2)CC1)Cc1ccccc1`, the cell number change was 21.6%. For the same molecule, the AC50 under setting [2] was 0.0461 µM [rising, full curve, poor fit].
On to `NC(=O)c1nsc(C(=O)N(Cc2cccnc2)C(C(=O)NCc2ccccc2)c2ccc(O)cc2)c1N` (stereo unspecified), for which the cell number change is 8.06%.
With `CC(C)(C)C(=O)N(Cc1ccccc1)c1ccccn1`, the cell number change is -25.6%. The AC50 under setting [1] is 29.1 µM [falling, single point].
With `CC(=O)N1CCN(Cc2nc3cc(NC(=O)Cn4nc(C)c5ccccc5c4=O)ccc3n2C)CC1`, the cell number change was -15.6%. Besides, the AC50 under setting [2] is 6.51 µM [falling, single point].
Regarding `C=CCOc1ccc(C(=O)N(Cc2ccc(N(C)C)cc2)C2CCS(=O)(=O)C2)cc1` (stereo unspecified), the cell number change came to 32.5%. For the same molecule, under setting [2], the concentration at half-maximal activity (AC50) is 1.46 µM [rising, full curve, poor fit]. Moreover, the AC50 under setting [1] is 2.31 µM [rising, partial curve].
With `O=C(N/N=C/c1cc2cc3c(cc2nc1Cl)OCCO3)c1ccccc1O`, the cell number change is -20.3%. For the same molecule, under setting [1], the half-maximal activity concentration (AC50) was 6.51 µM [falling, partial curve].
On to `Cc1ccc(SCCSc2nc(N)cc(=O)[nH]2)cc1`, for which the cell number change was -32%. Moreover, under setting [2], the concentration at half-maximal activity (AC50) was 29.1 µM [falling, single point].
As for `CC(C)=CCN1CCN(Cc2cnc(N3CCOCC3)s2)CC1CCO` (stereo unspecified), the AC50 under setting [1] was 20.6 µM [falling, partial curve].
As to `CCN(CC)S(=O)(=O)c1ccc(NC(=O)CN(c2cccc(C)c2)S(C)(=O)=O)cc1`, the cell number change was -30.2%. In addition, the AC50 under setting [2] is 29.1 µM [falling, single point]. Also, the AC50 under setting [1] is 29.1 µM [falling, single point].
In the case of `Cc1ccc(CNC(=O)c2cc(C)nn2-c2ccccc2)cc1`, the cell number change was determined as 24.8%. Moreover, the AC50 under setting [2] is 0.103 µM [rising, full curve, poor fit]. The AC50 under setting [1] was 2.31 µM [rising, single point].
On to `CSc1ccccc1NC(=O)Cn1nc([N+](=O)[O-])cc1C`, for which the cell number change came out at 73.3%.
In the case of `COc1ccc(C(=O)O)cc1S(=O)(=O)N1CCSCC1`, the half-maximal activity concentration (AC50) under setting [1] is 6.51 µM [rising, partial curve].
For the molecule `CC1C2C(c3ccccc3)N(C)C(=O)N(C)C2N(C)C(=O)N1C` (stereo unspecified), the cell number change was -2.48%. Further, the AC50 under setting [1] was 0.13 µM [falling, full curve, poor fit].
Take `CC(=O)Nc1nc(-c2ccc3c(c2)CCN3C(=O)C2CC2)c(C)s1`: the cell number change was -34.6%.
On to `COc1cc(OC)cc(-c2c(-c3ccc(F)cc3)c3cc(Br)ccc3n2C)c1`, for which, under setting [1], the AC50 is 0.651 µM [falling, partial curve, poor fit].
For the molecule `Cc1cc(=O)[nH]c(SCC(=O)N2CCN(C(c3ccccc3)c3ccccc3)CC2)n1`, the AC50 under setting [2] is 1.46 µM [falling, partial curve, poor fit].
For `Cc1cc(/C=C\c2nc(O)c([N+](=O)[O-])c(=O)[nH]2)c(C)n1-c1ccccc1`, the cell number change was -24.6%. Under setting [2], the AC50 was 0.651 µM [falling, full curve, poor fit]. For the same molecule, under setting [1], the AC50 is 5.8 µM [falling, partial curve].
With `CCNC(=S)N/N=C/c1cccc(OCc2c(F)cccc2Cl)c1`, the cell number change was -4.36%. Moreover, the AC50 under setting [1] was 3.66 µM [rising, partial curve].
As to `CCC(=C(c1ccc(OC)cc1)c1ccc(OC)cc1)c1cn(CC(O)CN2CCN(C)CC2)c2ccccc12` (stereo unspecified), the cell number change was -64%. Also, the AC50 under setting [2] was 23.1 µM [falling, single point].
Turning to `C/C(=N\NC(=O)C1=NNC(=O)C1C)c1cccs1` (stereo unspecified), the AC50 by setting is: under setting [2], 1.3 µM [falling, single point]; under setting [1], 1.03 µM [falling, single point].
In the case of `CC(=O)N/C(=N\c1nc(C)cc(C)n1)Nc1ccc2ccccc2c1`, the cell number change is -1.01%. For the same molecule, the AC50 under setting [1] is 1.3 µM [rising, partial curve].
With `CC1(C)CC(=O)C(C(=O)CCCCC(=O)C2C(=O)CC(C)(C)CC2=O)C(=O)C1`, the cell number change is -32.2%. Moreover, the AC50 under setting [2] was 16.4 µM [falling, partial curve]. For the same molecule, the half-maximal activity concentration (AC50) under setting [1] was 23.1 µM [falling, partial curve].
For `N#Cc1cc2c(nc1SC1CCCCC1O)CCCC2` (stereo unspecified), the cell number change is 36.9%. Moreover, the AC50 under setting [1] is 0.13 µM [rising, full curve, poor fit].
Take `CCOC(=O)C1CCN(S(=O)(=O)c2nc3nc(C)cc(C)n3n2)CC1`: the cell number change stood at 9.06%. The AC50 under setting [1] is 0.146 µM [rising, full curve, poor fit].
Regarding `Nc1ccc(C(=O)NC2CCSc3ccccc32)cc1[N+](=O)[O-]` (stereo unspecified), the cell number change is -27%.
As to `CCOC(=O)c1c(NC(=O)CCC(=O)NCc2ccco2)sc2c1CCCC2`, the cell number change came out at 18.4%. Moreover, under setting [2], the AC50 was 0.0651 µM [rising, full curve, poor fit].
As for `CCOC(=O)C1=C(O)/C(=C/N(C)C)N=C1C`, the cell number change is -9.21%.
`Cc1ccc(CCNC(=O)CN(c2cc(C)cc(C)c2)S(=O)(=O)c2c(C)noc2C)cc1`: the cell number change came to 6.46%.
In the case of `Cc1cc(O)ccc1NS(=O)(=O)c1ccc2c3c(cccc13)C(=O)N2`, the AC50 under setting [1] was 0.291 µM [falling, full curve].
For the molecule `CC(C)(C)c1ccc(C(=O)NNC(=O)C2CCCCC2)cc1`, the cell number change was -7.22%. Moreover, the AC50 under setting [1] was 0.103 µM [falling, full curve, poor fit].
On to `CCCNC(=O)N1CCC(C(=O)c2ccc(F)cc2)CC1`, for which the cell number change was -16.5%. Moreover, the AC50 under setting [1] was 0.164 µM [falling, full curve, poor fit].
Turning to `Cn1cnnc1SCC(=O)Nc1ccccc1F`, the cell number change turned out to be 22.3%. Also, the AC50 under setting [1] is 6.51 µM [rising, single point].
As to `NC(=O)c1cc([N+](=O)[O-])ccc1Nc1ccccc1`, the cell number change was determined as 21.3%. The AC50 under setting [1] is 1.84 µM [rising, partial curve].
On to `C#CCOCCOCCOCCNc1nc(N2CCN(C(=O)[C@H]([C@@H](C)CC)n3cc(CCCCN)nn3)CC2)nc(N2CCN(C(=O)[C@H](C)n3cc(CCCN=C(N)N)nn3)CC2)n1`, for which the cell number change is -16.9%. Moreover, the half-maximal activity concentration (AC50) under setting [1] was 29.1 µM [rising, single point].
